Assay results taken from patent US12366570B2, “Cell-based ZNT8 assay” (THE JOHNS HOPKINS UNIVERSITY, priority 2019, dated 2025).
No dose or concentration is given here for some results.

B1: mAb20: anti-ZnT8 monoclonal antibody; heavy chain and light chain SEQ ID NOS:32 and 37 (antibody)
heavy: MDMRVPAQLLGLLLLWLRGARCQIQLVQSGPELKKPGETVKISCKASGYIFTNYPMHWVKQAPGKGLKWMGWINTYSGVPTHADDFKGRFAFSLETSANSAFLQINNLKNEDTATYFCTRSRITPTGGYAMDYWGQGTSVTVSSAKTTPPSVYPLAPGSAAQTNSMVTLGCLVKGYFPEPVTVTWNSGSLSSGVHTFPAVLQSDLYTLSSSVTVPSSTWPSETVTCNVAHPASSTKVDKKIVPRDCGCKPCICTVPEVSSVFIFPPKPKDVLTITLTPKVTCVVVDISKDDPEVQFSWFVDDVEVHTAQTQPREEQFNSTFRSVSELPIMHQDWLNGKEFKCRVNSAAFPAPIEKTISKTKGRPKAPQVYTIPPPKEQMAKDKVSLTCMITDFFPEDITVEWQWNGQPAENYKNTQPIMDTDGSYFVYSKLNVQKSNWEAGNTFTCSVLHEGLHNHHTEKSLSHSPGK
light: MDMRVPAQLLGLLLLWLRGARCDVVMTQTPLSLPVSLGDQASISCRSSQSLVHSNGNTYLHWYLQKPGQSPNLLISKVSNRFSGVPERFSGSGSGTDFTLKISRVEAEDLGVYFCSQNTHVPWTFGGGTKLEIKRADAAPTVSIFPPSSEQLTSGGASVVCFLNNFYPKDINVKWKIDGSERQNGVLNSWTDQDSKDSTYSMSSTLTLTKDEYERHNSYTCEATHKTSTSPIVKSFNRNEC
modifications: mAb20 heavy chain; mAb20 light chain
B2: mAb39: anti-ZnT8 monoclonal antibody; heavy chain and light chain SEQ ID NOS:52 and 57 (antibody)
heavy: MGWSCIMFFLVATATDVHSQVQLQQPGAELVKPGASVKLSCKASGYSFTTYWMHWVKQRPGQGLEWVGDINPRNGRTNYNEKSKSKATLTVDISSSTVYMQVSSLTSEDSAVYYCAIWSGAMDYWGPGTSVTVSSAKTTAPSVYPLAPVCGDTTGSSVTLGCLVKGYFPEPVTLTWNSGSLSSDVHTFPALLQSGLYTLSSSVTVTTWPSQTITCNVAHPASSTKVDKKIEPRGSPTHKPCPPCPAPNLLGGPSVFIFPPKIKDVLMISLSPMVTCVVVDVSEDDPDVHVSWFVNNVEVHTAQTQTHREDYNSTIRVVSALPIQHQDWMSGKEFKCKVNNKALPAPIERTISKPKGPVRAPQVYVLPPPEEEMTKKQVTLTCMITDFMPEDIYVEWTNNGQTELNYKNTEPVLDSDGSYFMYSKLRVEKKNWVERNSYSCSVVHEGLHNHHTTKSFSRSPGK
light: MKLPVRLLVLMFWIPASSSDVVMTQTPLSLPVSLGDQPSISCKSSQSLVHNNGNTYLHWYLQKPGQSPKLLIYKVSNRFSGVPDRFSGSGSGTDFTLKISRVEAEDLGVYFCSQTTHVPPTFGGGTKLEIKRADAAPTVSIFPPSSEQLTSGGASVVCFLNNFYPKDINVKWKIDGSERQNGVLNSWTDQDSKDSTYSMSSTLTLTKDEYERHNSYTCEATHKTSTSPIVKSFNRGEC
modifications: mAb39 heavy chain; mAb39 light chain

Tested on: endogenous ZnT8 in EndoC-βH1 cells
Assay: ZnT8-ELISA assay validation (signal-to-noise of mAb immunodetection)
Type: cell-based, human
Conditions: for signal-to-noise ratio probing endogenous ZnT8: saturating mAb concentration (1:600 dilution)

| Molecule | Z′ score (95×10^3 cells) | signal-to-noise ratio probing endogenous ZnT8 |
| --- | --- | --- |
| B1 | 0.8 | significant signal-to-noise ratio |
| B2 | – | only mAb20 had a significant signal-to-noise ratio |
